The list shows a part of the results.

For the test, the target named is T1, OsSMF1 (Oryza sativa, UniProt Q6ZLB0 1-436).
T1 sequence: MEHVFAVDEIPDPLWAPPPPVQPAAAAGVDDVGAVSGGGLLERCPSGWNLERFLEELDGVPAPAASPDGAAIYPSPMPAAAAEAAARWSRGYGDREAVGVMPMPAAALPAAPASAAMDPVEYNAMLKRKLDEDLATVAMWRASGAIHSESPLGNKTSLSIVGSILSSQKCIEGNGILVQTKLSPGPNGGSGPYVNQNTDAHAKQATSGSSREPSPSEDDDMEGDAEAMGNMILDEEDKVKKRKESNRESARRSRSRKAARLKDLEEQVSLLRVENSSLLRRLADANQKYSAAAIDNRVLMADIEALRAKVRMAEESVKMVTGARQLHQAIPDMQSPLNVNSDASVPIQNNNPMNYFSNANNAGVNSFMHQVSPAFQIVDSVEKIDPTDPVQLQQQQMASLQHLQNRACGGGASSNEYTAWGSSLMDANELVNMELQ
Briefly: protein-binding microarray (RPBM); PBS, 2% BSA, 51.3 ng/ul salmon testes DNA, 50 uM zinc acetate, 200 nM TF, 25 C, 1 h; high values mean tight binding. Conditions: protein: recombinant; tags: N-terminal polyhistidine and DsRed monomer fusion (pET32a); chain copies: 2; label: CyDye5-dUTP incorporated in the synthesized complementary strand; 3' TTTTT single-stranded linker to array surface; dsDNA, one strand shown. The gist of the method: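 An Axon 4000B scanner gave the binding signal as per-feature fluorescence intensity in arbitrary units. This followed washing of a custom Agilent array that had been incubated for 1 h at 25 °C with 200 nM protein in PBS, 2% BSA, salmon testes DNA and 50 µM zinc acetate. The proteins were transcription factors fused at the N-terminus to polyhistidine and DsRed, expressed in E. coli BL21-CodonPlus and purified on Ni–NTA.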
With “ACCGAAACTGCTTGCATCACCGCTGATATCATCGCCTCCACGGAGTCACCTAGTGCAG”, the binding signal is 5920 fluorescence intensity (a.u.).

Consider “GTTATCCAATTGGTTGCAGGTGATGGGTGAACATGTTCTACGGAGTCACCTAGTGCAG”, for which the binding signal was 3200 fluorescence intensity (a.u.).

On to “CTTCTTCTTATCCTACAGCATGTGACGTCAATTTATCATCCGGAGTCACCTAGTGCAG”, for which the binding signal was 6060 fluorescence intensity (a.u.).

In the case of “ATAATGCATTTAGTATTGCCACCCTGTACTAATAGATGTTCGGAGTCACCTAGTGCAG”, the binding signal was 3810 fluorescence intensity (a.u.).

“TGTTACAAAACCAAGTCACTCTAGATAGTTTTGACCGGTTCGGAGTCACCTAGTGCAG”: the binding signal is 3650 fluorescence intensity (a.u.).

For the sequence “ATGGTAAACGTTACTTGTTGCGGACAACGTGACTGGCTTCCGGAGTCACCTAGTGCAG”, the binding signal is 4800 fluorescence intensity (a.u.).

For “CCGTTTCACCTCGTGCTTCCGGGCGTGGCGTCGTGTACCCCGGAGTCACCTAGTGCAG”, the binding signal is 3780 fluorescence intensity (a.u.).

In the case of “GTCGCCATGCGTGGCCAGAGATTTCCAAACGTAGTTGAATCGGAGTCACCTAGTGCAG”, the binding signal was 3260 fluorescence intensity (a.u.).

Regarding “TGGGTCCCACATGAGTCCCACGCTGACTCAGCCGCCACGTCGGAGTCACCTAGTGCAG”, the binding signal is 17800 fluorescence intensity (a.u.).

“AAACCCCTACCATGACACATGGCACATCCAAAGATTAAAACGGAGTCACCTAGTGCAG”: the binding signal was 4070 fluorescence intensity (a.u.).

In the case of “AGTTCTTCACCGCCGGCGGCGTCATCGTGCTGCTCGACCTCGGAGTCACCTAGTGCAG”, the binding signal is 4860 fluorescence intensity (a.u.).

Take “TCCTCCCTCTCCCTCTTCTGACTCGGATTCGCCGCAGCCGCGGAGTCACCTAGTGCAG”: the binding signal was 6080 fluorescence intensity (a.u.).

Take “AAATTATAAATGCCACTGTCATATATATTTCTCGATAATGCGGAGTCACCTAGTGCAG”: the binding signal is 3880 fluorescence intensity (a.u.).

Turning to “ACTTCTAAAACTCAGTATGCAAGTGTACAACATCGTCATCCGGAGTCACCTAGTGCAG”, the binding signal was 4780 fluorescence intensity (a.u.).

With “GACGCACGAAACCGCGAGCATTTCTGATTTCTCCTCCTCTCGGAGTCACCTAGTGCAG”, the binding signal is 3240 fluorescence intensity (a.u.).

In the case of “TTTTCTTCCAAGGAAGGGGCGCTACGTGGACCAATCAAAACGGAGTCACCTAGTGCAG”, the binding signal is 3790 fluorescence intensity (a.u.).

As to “TCTTCCACGTACCGATAGCGCCCCGCGTCATTACTTCGTCCGGAGTCACCTAGTGCAG”, the binding signal was 7540 fluorescence intensity (a.u.).

“TATCCCCATATCTCTTTGAGCGTGTGCCATGACGCACATTCGGAGTCACCTAGTGCAG”: the binding signal is 4440 fluorescence intensity (a.u.).

For the sequence “GAGAAGATGGCGGGAGAAGCGAGGAGTGGAGCAGCGGTGGCGGAGTCACCTAGTGCAG”, the binding signal was 14500 fluorescence intensity (a.u.).

As to “AATAGCATTCATCCATCAACTGAAGAACAAAGAGGCCATTCGGAGTCACCTAGTGCAG”, the binding signal was 12400 fluorescence intensity (a.u.).

On to “TCCTCCTCGTCGTCATCTCCAACTCCCTCCCGCTCCCTTCCGGAGTCACCTAGTGCAG”, for which the binding signal is 5660 fluorescence intensity (a.u.).

With “ACACAATGTTCTAGGTTAGCTTGGTCATGACCAAGATTAGCGGAGTCACCTAGTGCAG”, the binding signal was 4880 fluorescence intensity (a.u.).

For the sequence “ATACGGCAGGAAGGCGCTGATGACACTGCCGGTGACCGTGCGGAGTCACCTAGTGCAG”, the binding signal is 4270 fluorescence intensity (a.u.).

Take “CCAAACTAATTAAGACAGCCAACTCACCTCCATCATATAACGGAGTCACCTAGTGCAG”: the binding signal was 65500 fluorescence intensity (a.u.).

For the sequence “GCGGCCGTCGTCGTGGTCGTCACCCATCGTGGAGGCGCCGCGGAGTCACCTAGTGCAG”, the binding signal is 3160 fluorescence intensity (a.u.).

Take “AGACAATCGCGAGGAAGCGTGTGCTGGCTCGTCCTGGATGCGGAGTCACCTAGTGCAG”: the binding signal is 3210 fluorescence intensity (a.u.).

For “CGCGCGTCTCTTGCCACGACGGCCACCACTCACCGAAGAACGGAGTCACCTAGTGCAG”, the binding signal is 5170 fluorescence intensity (a.u.).

As to “TTAGGTTTGAATGATTCAGTTTGTTGAGTCAGATGTACAGCGGAGTCACCTAGTGCAG”, the binding signal was 4930 fluorescence intensity (a.u.).

On to “GAACTAGTTGCGGAAACGACGTGACATACCTAACAAAATTCGGAGTCACCTAGTGCAG”, for which the binding signal is 3760 fluorescence intensity (a.u.).

As to “AGCTAGTACCTCACATGCATTCATCTTGCTTGCAATCCGTCGGAGTCACCTAGTGCAG”, the binding signal was 45100 fluorescence intensity (a.u.).

On to “ATCGACGGTGAGATTAGATACTGCTACGTGGCGATCTAAGCGGAGTCACCTAGTGCAG”, for which the binding signal was 3830 fluorescence intensity (a.u.).

For “AACATGCCATCCCTAACTTTATCACTTATTATTACTAAGTCGGAGTCACCTAGTGCAG”, the binding signal is 4110 fluorescence intensity (a.u.).

Regarding “AAACGCAAATACCTACAACACGTGTGCACTCACCTCTTATCGGAGTCACCTAGTGCAG”, the binding signal is 6160 fluorescence intensity (a.u.).

As to “AAATCAGAATGCCTATTTGTCAAATTCTTGATTTCGTGTTCGGAGTCACCTAGTGCAG”, the binding signal is 3160 fluorescence intensity (a.u.).

Regarding “TCGTGTGCCTTCTAGGGCGAGCCCTACCACGTGGCGCGGCCGGAGTCACCTAGTGCAG”, the binding signal is 14500 fluorescence intensity (a.u.).

With “AATTCGCTACTCTGAAACTCTGAACAAAATTTCAGAGGGACGGAGTCACCTAGTGCAG”, the binding signal was 12900 fluorescence intensity (a.u.).

As for “GGCAGCTATAAATCAGGAGAGGCGCTGTGTGTTAGCTCGTCGGAGTCACCTAGTGCAG”, the binding signal was 21100 fluorescence intensity (a.u.).

As for “AATCCCGTGCCGTTGCCCTGATGACGGGTCGGCCCCACAACGGAGTCACCTAGTGCAG”, the binding signal was 4870 fluorescence intensity (a.u.).

Consider “GCAAATATTTGTCAGATAAATTGCAATTTGACACGTACCTCGGAGTCACCTAGTGCAG”, for which the binding signal was 7150 fluorescence intensity (a.u.).

In the case of “CGCTGCCACGCACACACACATCGTCTCGGCGACACACGCGCGGAGTCACCTAGTGCAG”, the binding signal was 4680 fluorescence intensity (a.u.).

Consider “ATATATTAATAGCATGACACATCAATGCTAATAAGAGTTCCGGAGTCACCTAGTGCAG”, for which the binding signal was 3490 fluorescence intensity (a.u.).

In the case of “GGCATGGGTATGGGTCATCACTACCCATGCCCGCTTTGCCCGGAGTCACCTAGTGCAG”, the binding signal was 4410 fluorescence intensity (a.u.).

On to “TCTTGATGAATTTCAACCAAAAGCACGTCACTATATGCAACGGAGTCACCTAGTGCAG”, for which the binding signal is 4900 fluorescence intensity (a.u.).

For the sequence “CGTGGCCAATAAGCTCCCGTGAGCTGACGTCTCGTGCTCGCGGAGTCACCTAGTGCAG”, the binding signal was 4700 fluorescence intensity (a.u.).

Take “CGGCTACAGAGGCAGAAGTGCACGCTGACCTCAGGTCGTGCGGAGTCACCTAGTGCAG”: the binding signal is 3180 fluorescence intensity (a.u.).

In the case of “GGGCATGTAGCCTGGTGGTTGCAGTCACCTGAGTAGTACCCGGAGTCACCTAGTGCAG”, the binding signal is 3530 fluorescence intensity (a.u.).

For the sequence “AGAGCTAGGTAACGTACGTGTACGTCAGAGAATCTTGTTCCGGAGTCACCTAGTGCAG”, the binding signal was 5680 fluorescence intensity (a.u.).

“CTTTGGGTTGTGAGTAAGGCTTGGTGGGGCCCAGCTCACGCGGAGTCACCTAGTGCAG”: the binding signal is 3550 fluorescence intensity (a.u.).

As for “GTAACTGGGTGTTACGTACGTTACGTTGCACCTATCGCTTCGGAGTCACCTAGTGCAG”, the binding signal is 3230 fluorescence intensity (a.u.).

Take “GCTCCTCACACTCCTGACACGACTGGGCTTTCCTGCAGATCGGAGTCACCTAGTGCAG”: the binding signal was 5890 fluorescence intensity (a.u.).

As to “CCACGGGACAGGAAATTACCGGCCCTATCCACATCACTTCCGGAGTCACCTAGTGCAG”, the binding signal was 4110 fluorescence intensity (a.u.).

Consider “TCCTGTAATGGTACAAAAGTTCAGAGGTTGTTGCATAACGCGGAGTCACCTAGTGCAG”, for which the binding signal was 29900 fluorescence intensity (a.u.).

As to “GGTATATATAGGAGTACATGGGGAGGAGATAAGGAAGGATCGGAGTCACCTAGTGCAG”, the binding signal was 3150 fluorescence intensity (a.u.).

With “CCGCTGTGTCGCTGCTGCTGCCACCGCAGCTGCTGCGCCGCGGAGTCACCTAGTGCAG”, the binding signal was 4590 fluorescence intensity (a.u.).
